{"source": "PubChem BioAssay AID1224828 | NIAID – 2016", "assay": "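Knock-downs that increase or decrease LPS-induced p65 nuclear translocation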 (primary screen)", "cell system": "mouse RAW264.7 G9 macrophage reporter cells (GFP-p65, Tnf promoter-mCherry)", "reagents": "siRNA pool against mouse genes, 100 nM", "time to read-out": "2 days siRNA transfection, then 40 min LPS before fixation", "challenge": "LPS (Salmonella minnesota R595) at 10 ng/ml", "measurement": "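Imaged p65 nuclear translocation ratio, normalised to the plate median, converted to robust z-scores and averaged across two replicates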", "scale": "p65 translocation robust z-score: higher = more nuclear NF-kappaB p65 after LPS than the plate median; nuclear/cytoplasmic p65 ratio: higher = more nuclear NF-kappaB p65", "rule for the call": "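Called active when z exceeds 3.3 or falls under -1.56 (median of Tlr4 controls), giving activity score of at least 50; no calls for control wells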", "calls": "active = hit (p65 shift raised or lowered); inactive = no clear change", "note": "The whole screen tested about 17,000 reagents; shown is an unselected part. 762 of them (4.5%) were called active. 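Active calls include both raised and lowered p65 entry, mostly lowered; wells with fewer than 50 cells lack a z-score.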 Raw values are not corrected between plates. Unmarked entries are inactive. Reagent sequences are not shown."}
{"gene knocked down": "Fam171a2", "p65 translocation robust z-score": -0.69, "nuclear/cytoplasmic p65 ratio, rep 1": 1.46, "nuclear/cytoplasmic p65 ratio, rep 2": 1.75, "low cell count flag": "enough cells to score"}
{"gene knocked down": "Trpv6", "p65 translocation robust z-score": 0.46, "nuclear/cytoplasmic p65 ratio, rep 1": 1.57, "nuclear/cytoplasmic p65 ratio, rep 2": 1.58, "low cell count flag": "enough cells to score"}
{"gene knocked down": "Snx29", "nuclear/cytoplasmic p65 ratio, rep 1": 1.42, "nuclear/cytoplasmic p65 ratio, rep 2": 1.84, "low cell count flag": "fewer than 50 cells per well; well left out of scoring"}
{"gene knocked down": "Flrt3", "p65 translocation robust z-score": 0.52, "nuclear/cytoplasmic p65 ratio, rep 1": 1.62, "nuclear/cytoplasmic p65 ratio, rep 2": 1.58, "low cell count flag": "enough cells to score"}
{"gene knocked down": "Dok4", "p65 translocation robust z-score": 0.1, "nuclear/cytoplasmic p65 ratio, rep 1": 1.55, "nuclear/cytoplasmic p65 ratio, rep 2": 1.34, "low cell count flag": "enough cells to score"}
{"gene knocked down": "Nscme3l", "p65 translocation robust z-score": 0.97, "nuclear/cytoplasmic p65 ratio, rep 1": 1.55, "nuclear/cytoplasmic p65 ratio, rep 2": 1.51, "low cell count flag": "enough cells to score"}
{"gene knocked down": "Rbbp6", "p65 translocation robust z-score": 0.8, "nuclear/cytoplasmic p65 ratio, rep 1": 1.72, "nuclear/cytoplasmic p65 ratio, rep 2": 1.75, "low cell count flag": "enough cells to score"}
{"gene knocked down": "Slc24a5", "nuclear/cytoplasmic p65 ratio, rep 1": 1.47, "nuclear/cytoplasmic p65 ratio, rep 2": 1.42, "low cell count flag": "fewer than 50 cells per well; well left out of scoring"}
{"gene knocked down": "C1qtnf5", "p65 translocation robust z-score": 3.16, "nuclear/cytoplasmic p65 ratio, rep 1": 2.05, "nuclear/cytoplasmic p65 ratio, rep 2": 1.77, "low cell count flag": "enough cells to score"}
{"gene knocked down": "Golga5", "p65 translocation robust z-score": 0.5, "nuclear/cytoplasmic p65 ratio, rep 1": 1.41, "nuclear/cytoplasmic p65 ratio, rep 2": 1.53, "low cell count flag": "enough cells to score"}
{"gene knocked down": "Tdpoz4", "nuclear/cytoplasmic p65 ratio, rep 1": 1.33, "nuclear/cytoplasmic p65 ratio, rep 2": 1.15, "low cell count flag": "fewer than 50 cells per well; well left out of scoring"}
{"gene knocked down": "Brk1", "p65 translocation robust z-score": 0, "nuclear/cytoplasmic p65 ratio, rep 1": 1.5, "nuclear/cytoplasmic p65 ratio, rep 2": 1.55, "low cell count flag": "enough cells to score"}

A stretch from the list above:
{"gene knocked down": "Trpv6", "p65 translocation robust z-score": 0.46, "nuclear/cytoplasmic p65 ratio, rep 1": 1.57, "nuclear/cytoplasmic p65 ratio, rep 2": 1.58, "low cell count flag": "enough cells to score"}
{"gene knocked down": "Snx29", "nuclear/cytoplasmic p65 ratio, rep 1": 1.42, "nuclear/cytoplasmic p65 ratio, rep 2": 1.84, "low cell count flag": "fewer than 50 cells per well; well left out of scoring"}
{"gene knocked down": "Flrt3", "p65 translocation robust z-score": 0.52, "nuclear/cytoplasmic p65 ratio, rep 1": 1.62, "nuclear/cytoplasmic p65 ratio, rep 2": 1.58, "low cell count flag": "enough cells to score"}
{"gene knocked down": "Dok4", "p65 translocation robust z-score": 0.1, "nuclear/cytoplasmic p65 ratio, rep 1": 1.55, "nuclear/cytoplasmic p65 ratio, rep 2": 1.34, "low cell count flag": "enough cells to score"}

The results go on.
{"gene knocked down": "Mtcl1", "nuclear/cytoplasmic p65 ratio, rep 1": 1.75, "nuclear/cytoplasmic p65 ratio, rep 2": 1.59, "low cell count flag": "fewer than 50 cells per well; well left out of scoring"}
{"gene knocked down": "Camkk1", "p65 translocation robust z-score": 0.77, "nuclear/cytoplasmic p65 ratio, rep 1": 1.9, "nuclear/cytoplasmic p65 ratio, rep 2": 1.41, "low cell count flag": "enough cells to score"}
{"gene knocked down": "Krt72", "p65 translocation robust z-score": -0.18, "nuclear/cytoplasmic p65 ratio, rep 1": 1.55, "nuclear/cytoplasmic p65 ratio, rep 2": 1.68, "low cell count flag": "enough cells to score"}
{"gene knocked down": "Slc27a5", "p65 translocation robust z-score": -0.57, "nuclear/cytoplasmic p65 ratio, rep 1": 1.33, "nuclear/cytoplasmic p65 ratio, rep 2": 1.2, "low cell count flag": "enough cells to score"}
{"gene knocked down": "Dph3", "p65 translocation robust z-score": 0.68, "nuclear/cytoplasmic p65 ratio, rep 1": 1.54, "nuclear/cytoplasmic p65 ratio, rep 2": 1.5, "low cell count flag": "enough cells to score"}
{"gene knocked down": "Rbmxl1", "p65 translocation robust z-score": 0.9, "nuclear/cytoplasmic p65 ratio, rep 1": 1.48, "nuclear/cytoplasmic p65 ratio, rep 2": 1.37, "low cell count flag": "enough cells to score"}
{"gene knocked down": "Oas3", "p65 translocation robust z-score": 0.78, "nuclear/cytoplasmic p65 ratio, rep 1": 1.49, "nuclear/cytoplasmic p65 ratio, rep 2": 1.58, "low cell count flag": "enough cells to score"}
{"gene knocked down": "Oog4", "p65 translocation robust z-score": 2.65, "nuclear/cytoplasmic p65 ratio, rep 1": 1.8, "nuclear/cytoplasmic p65 ratio, rep 2": 1.26, "low cell count flag": "enough cells to score"}
{"gene knocked down": "Fgd2", "p65 translocation robust z-score": -1.39, "nuclear/cytoplasmic p65 ratio, rep 1": 1.42, "nuclear/cytoplasmic p65 ratio, rep 2": 1.25, "low cell count flag": "enough cells to score"}
{"gene knocked down": "Hyal1", "p65 translocation robust z-score": -0.77, "nuclear/cytoplasmic p65 ratio, rep 1": 1.36, "nuclear/cytoplasmic p65 ratio, rep 2": 1.25, "low cell count flag": "enough cells to score"}
{"gene knocked down": "Il17c", "p65 translocation robust z-score": 0.4, "nuclear/cytoplasmic p65 ratio, rep 1": 1.56, "nuclear/cytoplasmic p65 ratio, rep 2": 1.41, "low cell count flag": "enough cells to score"}
{"gene knocked down": "Ms4a10", "p65 translocation robust z-score": 0.16, "nuclear/cytoplasmic p65 ratio, rep 1": 1.82, "nuclear/cytoplasmic p65 ratio, rep 2": 1.61, "low cell count flag": "enough cells to score"}
{"gene knocked down": "Ddb1", "p65 translocation robust z-score": 1, "nuclear/cytoplasmic p65 ratio, rep 1": 1.66, "nuclear/cytoplasmic p65 ratio, rep 2": 1.47, "low cell count flag": "enough cells to score"}
{"gene knocked down": "Lnx2", "p65 translocation robust z-score": -0.31, "nuclear/cytoplasmic p65 ratio, rep 1": 1.69, "nuclear/cytoplasmic p65 ratio, rep 2": 1.48, "low cell count flag": "enough cells to score"}
{"gene knocked down": "Cradd", "p65 translocation robust z-score": -0.03, "nuclear/cytoplasmic p65 ratio, rep 1": 1.53, "nuclear/cytoplasmic p65 ratio, rep 2": 1.32, "low cell count flag": "enough cells to score"}
